Values from PubChem BioAssay AID504784 (Drosophila RNAi Screening Center, 2011).

Purpose: 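Genome-wide knock-down for genes giving too much or too little stored lipid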 (primary screen)
System: Drosophila Kc167 embryonic cells
Knock-down reagent: long dsRNA against Drosophila genes, about 250 ng dsRNA per well
Time to read-out: 4 days
Conditions: cells fed 400 µM oleic acid bound to BSA
Detection: 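Microscope images give a droplet-to-nucleus area ratio, taken as log and converted to a screen-wide B-score; higher values mean greater lipid storage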
Direction: droplet/nuclear area B-score: higher = more stored lipid (overstorage)
In all, the deposit lists about 17,000 reagents; this is an unselected part of those with a known target gene and a result. 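Each column is one replicate's B-score; the combined score over replicates was not deposited, so single values may mislead.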 The numbers tell different reagents against one gene apart. Names joined by + are all predicted targets of the reagent. No sequences are given here.

target gene | reagent | droplet/nuclear area B-score, replicate 1 | droplet/nuclear area B-score, replicate 2 | droplet/nuclear area B-score, replicate 3
CG18661 (GeneID 50438) | 1 | -0.0893 | 0.401 | –
CG13705 (GeneID 38587) | 1 | 0.0347 | 0.145 | –
CG13705 (GeneID 38587) | 2 | -1.01 | -1.56 | –
CG18539 (GeneID 37096) | 1 | -2.27 | -0.672 | –
CG9986 (GeneID 43386) | 1 | 1.17 | – | –
CG4199 (GeneID 31174) | 1 | – | -1.36 | –
CG4199 (GeneID 31174) | 2 | -0.0289 | -0.231 | –
Ypel (GeneID 31949) | 1 | -4.06 | 0.577 | -1.49
wa-cup (GeneID 40892) | 1 | 0.0205 | -0.0104 | –
Sply (GeneID 46059) | 1 | 0.781 | -0.01 | –
CG7881 (GeneID 35521) | 1 | 0.248 | 0.262 | –
CG14891 (GeneID 42013) | 1 | -1.21 | -0.422 | –
AttC (GeneID 36484) | 1 | -0.57 | -0.00252 | –
garz (GeneID 36337) | 1 | 3.24 | -0.172 | –
Cyp6a13 (GeneID 35837) | 1 | -0.267 | 3.55 | –
Gp210 (GeneID 35512) | 1 | -0.97 | 0.0172 | –
Gp210 (GeneID 35512) | 2 | 0.247 | 0.168 | –
CG4781 (GeneID 37943) | 1 | 0.153 | -0.912 | –
Rpn11 (GeneID 33738) | 1 | -0.374 | 1.84 | –
l(3)psg2 (GeneID 38630) | 1 | -0.523 | -1.78 | –
CG4017 (GeneID 34296) | 1 | -0.00603 | 0.374 | –
NAT1 (GeneID 46020) | 1 | 0.134 | 0.637 | –
Usp12-46 (GeneID 42702) | 1 | 3.09 | -0.893 | –
CG7298 (GeneID 40210) | 1 | 0.0253 | 0.96 | -0.111
PrBP (GeneID 34196) | 1 | 2.57 | -1.53 | –
CG12699 (GeneID 36944) | 1 | -0.526 | -0.817 | –
CG3734 (GeneID 42318) | 1 | 0.813 | – | –
Vha68-3 (GeneID 34695) | 1 | 0.0398 | -1.03 | –
CG3104 (GeneID 33486) | 1 | -0.793 | 2.11 | –
CG5103 (GeneID 40012) | 1 | -0.533 | 0.261 | –
CG14892 (GeneID 42016) | 1 | 1.76 | -0.19 | –
arr (GeneID 44279) | 1 | 0.133 | 1.48 | –
tow (GeneID 38755) | 1 | 0.475 | 0.209 | –
tow (GeneID 38755) | 2 | 0.5 | -0.58 | –
p115 (GeneID 31698) | 1 | -0.483 | 0.649 | –
tgy (GeneID 32896) | 1 | 1.12 | 0.694 | –
La (GeneID 35305) | 1 | 1.25 | 0.285 | –
Mkrn1 (GeneID 44131) | 1 | -0.665 | -0.288 | 1.67
CG7488 (GeneID 41597) | 1 | -1.37 | -0.509 | –
Osi9 (GeneID 40763) | 1 | -0.141 | 0.31 | –

Next part (2 carried over from the part before).
target gene | reagent | droplet/nuclear area B-score, replicate 1 | droplet/nuclear area B-score, replicate 2 | droplet/nuclear area B-score, replicate 3
CG7488 (GeneID 41597) | 1 | -1.37 | -0.509 | –
Osi9 (GeneID 40763) | 1 | -0.141 | 0.31 | –
CG2100 (GeneID 40707) | 1 | -0.105 | -0.519 | –
Nsf2 (GeneID 41694) | 1 | 0.352 | -1.51 | –
CG7903 (GeneID 43554) | 1 | -0.0172 | -1.96 | –
drpr (GeneID 38218) | 1 | -0.0275 | -0.17 | –
drpr (GeneID 38218) | 2 | 0.834 | 0.527 | –
Sulf1 (GeneID 53437) | 1 | 0.87 | 0.59 | –
HHEX (GeneID 42495) | 1 | -0.131 | 0.514 | –
Ctl2 (GeneID 43440) | 1 | 0.728 | -0.688 | –
CG10803 (GeneID 31320) | 1 | -0.899 | – | –
CG5644 (GeneID 39029) | 1 | -0.971 | 1.44 | –
CG33341 (GeneID 2768683) | 1 | -0.282 | -1.07 | –
Pgm2a (GeneID 35923) | 1 | 0.0177 | -0.216 | –
fest (GeneID 37220) | 1 | -0.131 | 0.12 | –
Muc55B (GeneID 37057) | 1 | -0.338 | 0.177 | –
CG30091 (GeneID 246449) | 1 | -0.00366 | -1.06 | –
CG13088 (GeneID 34180) | 1 | 2.88 | -0.896 | –
CG15577 (GeneID 50378) | 1 | -0.328 | -2.61 | –
CG3358 (GeneID 35604) | 1 | 3.05 | 1.32 | –
CG9812 (GeneID 37709) | 1 | -1.37 | -0.682 | –
Scgdelta (GeneID 31129) | 1 | 0.0468 | 0.94 | –
CG18493 (GeneID 42319) | 1 | -0.256 | -0.135 | –
CG42518 + MED9 | 1 | -0.495 | 2.53 | –
l(2)34Fd (GeneID 34839) | 1 | -0.662 | 0.658 | –
CG8569 (GeneID 36376) | 1 | 0.684 | -0.0294 | –
Tmtc2 (GeneID 33276) | 1 | -0.853 | 0.32 | –
CG32027 (retired record) (GeneID 317830) | 1 | -0.358 | -0.0946 | –
CG2147 (GeneID 31759) | 1 | 7.17 | 3.34 | 0.552
Chi (GeneID 37837) | 1 | 0.284 | 0.374 | –
Nse1 (GeneID 33938) | 1 | -1.02 | -0.013 | –
kmr (GeneID 5740131) | 1 | -0.375 | -0.357 | –
kmr (GeneID 5740131) | 2 | -1.44 | -1.51 | –
kmr (GeneID 5740131) | 3 | 6.63 | -0.338 | –
Rexo5 (GeneID 38740) | 1 | 0.916 | -0.381 | –
Uba5 (GeneID 32094) | 1 | -1.46 | 0.0612 | 0.052
NimB5 (GeneID 34815) | 1 | -1.29 | 0.757 | –
CG43339 + CG43338 | 1 | 0.0162 | 0.066 | –
CG32532 (GeneID 32943) | 1 | 0.517 | -0.424 | –
CG32532 (GeneID 32943) | 2 | -0.965 | 0.927 | –
CG32532 (GeneID 32943) | 3 | -0.305 | -0.385 | –
Plp (GeneID 3772382) | 1 | -2.09 | -0.247 | –
Plp (GeneID 3772382) | 2 | 0.415 | 1.74 | –
Plp (GeneID 3772382) | 3 | 0.676 | -1.08 | 0.19
RFeSP (GeneID 44390) | 1 | -1.22 | 2.12 | –
